US20230296626A1
Results are given in words; binding and its absence hold for the method and conditions named. In cells and extracts the contact can be indirect. Some results given as binding are weak or reduced against the parent protein; the word gives no strength.

Molecular target: T1, ASC (Apoptosis-associated Speck-like protein containing a Caspase Activating Recruitment Domain), mouse, endogenous in brain cortical lysate (mouse) (UniProt Q9EPB4)
T1 sequence (looked up): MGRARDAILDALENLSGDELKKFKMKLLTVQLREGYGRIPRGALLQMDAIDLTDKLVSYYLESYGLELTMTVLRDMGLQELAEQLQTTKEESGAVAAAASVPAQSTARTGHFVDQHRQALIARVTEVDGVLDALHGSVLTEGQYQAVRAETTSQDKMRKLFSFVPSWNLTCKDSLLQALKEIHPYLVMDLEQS
Assay: co-immunoprecipitation from mouse cortical lysate with IC-100 on Protein G MicroBeads, immunoblot

B1: IC-100 (humanized anti-ASC monoclonal antibody) (antibody, V domains shown)
VH: QVTLKESGPALVKPTQTLTLTCSFSGFSLSTSGMGVSWIRQPAGKGLEWLAHIYWDDDKRYNPSLKSRLTISKDSSKNQVVLTMTNMDPVDTATYSCARSTPIVANAMDYWGQGTLVTVSS
VL: DIVMTQSPDSLAVSLGERATINCKASQSVDYDGDSYMNWYQQKPGQPPKLLIYAASNLESGIPARFSGSGSGTDFTLTISSLQPEDVATYYCQQSNEDPYTFGQGTKLEIK
  binding: binds
